In the series the test system is STHdh cell line model of Huntington's disease. Briefly: Global (untargeted) lipid profiling by LC-MS, STHdh Q111 vs STHdh Q7 cells. Format: cell-based, mouse.
[1] abbreviates: ratio of LC-MS feature level in STHdh Q7 vs STHdh Q111 cells, positive mode feature (mode_m/z_RT), mass matched to potential metabolites in the PPMI network.
Setting [2] is: ratio of LC-MS metabolite feature level, STHdh Q7 vs STHdh Q111 cells, feature (mode_m/z_RT) matched by mass to potential metabolites, P-value ≦0.01.

Regarding `CCCCCC/C=C\CCCCCCCC(=O)OC[C@H](COC(=O)CCCCCCCCCCCCCCCCCCC)OC(=O)CCCCCCCCCCCCCCCCC` [TG(16:1(9Z)/18:0/20:0)[iso6]], the Q7/Q111 under setting [1] worked out at 6.574.

For the molecule `CCCCCCCC/C=C\CCCCCCCC(=O)OC[C@@H](COC(=O)CCCCCCCCCCCCCCCCC)OC(=O)CCCCCCCCCCCCCCCCC` [TG(18:0/18:0/18:1(9Z))[iso3]], the Q7/Q111 under setting [1] is given as 6.574.

Consider `COc1ccc(-c2cc(=O)c3c(O)cc(O)c(O)c3o2)cc1` [Takakin], for which the Q7/Q111 under setting [2] came to 6.631.

`CC(C)COC(Cc1ccccc1)OCC(C)C` [[2,2-bis(2-methylpropoxy)ethyl]benzene]: the Q7/Q111 under setting [2] was 0.2629.

With `CCCC(=O)OC(C)(C)C1CC=C(C)CC1` (stereo not drawn) [alpha-Terpineol butanoate], the Q7/Q111 under setting [2] turned out to be 0.1814.

With `CC/C=C\CCOC(=O)CCCCC` [cis-3-Hexenyl hexanoate], the Q7/Q111 under setting [2] came to 0.2707.

Consider `CCCCC/C=C\CCCOC(C)=O` [cis-4-Decenyl acetate], for which the Q7/Q111 under setting [2] is reported as 0.2707.

Consider `CCCCCCCCCCCCCCCCCCCCCCCC(=O)O` [lignocerate], for which, under setting [2], the Q7/Q111 was 3.402.

In the case of `CCCCCCCC/C=C\CCCCCCCCCCCCCC(=O)O` [nervonate], the Q7/Q111 under setting [2] was 4.414.

For the molecule `CC/C=C\C/C=C\C/C=C\C/C=C\C/C=C\CCCC(=O)O` [timnodonate], the Q7/Q111 under setting [2] was found to be 2.729.

Turning to `CCCCCCCCC/C=C/C(=O)O` [trans-Dodec-2-enoic acid], the Q7/Q111 under setting [2] came out at 0.2707.

On to `CCCCCCCC1CCCC(=O)O1` (stereo not shown) [xi-5-Dodecanolide], for which, under setting [2], the Q7/Q111 was determined as 0.2707.

On to `CCCCCCCCC1CCC(=O)O1` (stereo not shown) [xi-Dihydro-5-octyl-2(3H)-furanone], for which the Q7/Q111 under setting [2] is reported as 0.2707.

Regarding `CC(C)=CCC[C@@H](C)[C@H]1CC[C@H]2C3=C(CC[C@]12C)[C@@]1(C)CCC(=O)C[C@@H]1CC3` [zymosterol intermediate 2], under setting [2], the Q7/Q111 is 0.1032.

Regarding Hexyl 2E-hexenoate, the Q7/Q111 under setting [2] is 0.2707.

In the case of Terpinyl isobutyrate, the Q7/Q111 under setting [2] was 0.1814.

These data come from patent US20170046476A1, “SYSTEMS, APPARATUS, AND METHODS FOR ANALYZING AND PREDICTING CELLULAR PATHWAYS” (priority 2015, published 2017).
